± gives the standard deviation. The list shows a part of the results, in another mix than the full data. Many entries were measured with a wide error.
The sequences below were run on MILI (PIWIL2) piRISC loaded with piRNA #1 (26 nt) (assay: pre-steady-state target cleavage rate (min^-1); MIWI and MILI are mouse PIWI proteins and EfPiwi is from a freshwater sponge; tags in brackets are library labels; higher = faster piRNA-guided slicing of the target). Details: guide: piRNA #1 5'p-UGAGGUAGUAGGUUGUAUAGUAUCCA; auxiliary factor: 500 nM mouse GTSF1.
Method in brief: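 For Cleave-'n-Seq, a transcribed, DNA-blocked target RNA library […] met 1 nM active affinity-purified piRISC with one synthetic guide at 33 °C for 0–8 or 0–960 min in HEPES–potassium acetate buffer, with or without 500 nM GTSF1 partner protein. Uncleaved targets were sequenced and normalised to depth and weakly complementary targets, with three trials pooled and k3 capped at 0.0001 min^-1. A burst-and-steady-state fit supplied the pre-steady-state cleavage rate.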
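Note: 1 nM active piRISC with 0.1 nM target library at 33 °C single turnover.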

Question: How did the “pre-steady-state target cleavage rate” value turn out when GGAGACCUAUGAUAUCAACCUAGUACCACA was run?
Answer: 0.000565 ± 0.011

Question: GGAGACCUAUGAUAUGAACCUACUACCCCA was tested. Which “pre-steady-state target cleavage rate” value did it give?
Answer: < 0.0001

Question: Which “pre-steady-state target cleavage rate” value does the source give for GGAGACCUAUGAUAACAACCUUGAACCUCA here?
Answer: 0.000117 ± 0.024

Question: How did the “pre-steady-state target cleavage rate” value turn out when GGAGAGGAUACAAAACAACCUACUACCUCA was run?
Answer: 0.128 ± 0.013

Question: How did the “pre-steady-state target cleavage rate” value turn out when GGAGAGGAAACUAUACAACCAACUACCUCA was run?
Answer: 0.00297 ± 0.0071

Question: For “GGAGACCUAUGUAUACAACCUUGAUGGAGA [g10:g19:cont:t1A]”, which “pre-steady-state target cleavage rate” value is on record?
Answer: 0.000328 ± 0.013

Question: For GGAGACCUAUGAUAUGUACCAACUACCUGA, which “pre-steady-state target cleavage rate” value is on record?
Answer: 0.000117 ± 0.014

Question: Which “pre-steady-state target cleavage rate” value does the source give for GGAGACCUAUGAAACAACCUACUACCUCA here?
Answer: 0.00673 ± 0.0031

Question: For GGAGUGGAUACUAUACAACCUACUACCUGCA, which “pre-steady-state target cleavage rate” value is on record?
Answer: 0.109 ± 0.012

Question: GGAGACCUAUGAUUAGAACCAACUACCUCA was tested. Which “pre-steady-state target cleavage rate” value did it give?
Answer: 0.000252 ± 0.013

Question: For GGAGAGGAUACUAUACAACCUACUUCCACA, which “pre-steady-state target cleavage rate” value is on record?
Answer: 0.00294 ± 0.0036

Question: With GGAGACCUAUGAUAUGUACCUACGACCUCA as the sequence, how does the “pre-steady-state target cleavage rate” value read?
Answer: 0.00012 ± 0.022

Question: For GGAGUGGAUACCUAUACAACCUACUACCUCA, which “pre-steady-state target cleavage rate” value is on record?
Answer: 0.0993 ± 0.019

Question: How did the “pre-steady-state target cleavage rate” value turn out when GGAGACGAACUAUACAACCUACUACCUCA was run?
Answer: 0.138 ± 0.012

Question: GGAGACCUAACUAUCCAACCUACUACCUCA was tested. Which “pre-steady-state target cleavage rate” value did it give?
Answer: 0.208 ± 0.038

Question: How did the “pre-steady-state target cleavage rate” value turn out when GGAGACCUAACUAUACAACCUACUUCCUGA was run?
Answer: 0.0081 ± 0.0069

Question: With GGAGACCUAUGAUAUCAACCUACAACCUGA as the sequence, how does the “pre-steady-state target cleavage rate” value read?
Answer: 0.00031 ± 0.011

Question: With GGAGACCUAUGAUUACAACCUACUAGGACA as the sequence, how does the “pre-steady-state target cleavage rate” value read?
Answer: 0.000193 ± 0.034

Question: Which “pre-steady-state target cleavage rate” value does the source give for GGAGAGGAUACUAUUGUACCUACUACCUCA here?
Answer: 0.131 ± 0.0096

Question: With GGAGACCUAUGAAUUCAACCUACUUCCUCA as the sequence, how does the “pre-steady-state target cleavage rate” value read?
Answer: 0.000222 ± 0.024

Question: How did the “pre-steady-state target cleavage rate” value turn out when GGAGACCUAUGAUAUGUACCUACUAGCCUCA was run?
Answer: 0.000106 ± 0.025

Question: With GGAGACCAUACAAUACAACCUACUACCUGA as the sequence, how does the “pre-steady-state target cleavage rate” value read?
Answer: 0.12 ± 0.019

Question: How did the “pre-steady-state target cleavage rate” value turn out when GGAGAGGAUACUAUCACAACCUACUACCUCA was run?
Answer: 0.136 ± 0.011

Question: GGAGACCUAUGAUAUCAACCUACUAGCACA was tested. Which “pre-steady-state target cleavage rate” value did it give?
Answer: 0.000179 ± 0.013

From the supplement of paper PMC10338343
